Test results as given in paper PMC13260904.
Results are given in words; binding and its absence hold for the method and conditions named. Binding seen in cells or lysates may run through a third protein. Some results given as binding are weak or reduced against the parent protein; the word gives no strength. Tags and fused reporters may be left off the sequences shown.

By UniProt entry, the sequences of proteins in these tests, tags left out.
UniProt Q13541: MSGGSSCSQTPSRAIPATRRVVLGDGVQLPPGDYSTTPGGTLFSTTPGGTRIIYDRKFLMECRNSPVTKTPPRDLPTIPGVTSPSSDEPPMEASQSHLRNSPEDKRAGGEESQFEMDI

Target: Flag-tagged 4E-BP1 (UniProt Q13541)
Assay: co-IP; HEK293T co-transfected with HA-SIRT2 and Flag-4E-BP1 or Flag empty vector; lysis in 1% NP40 buffer pH 7.4; Flag beads at 4 °C overnight; washes in 25 mM Tris pH 8.0, 150 mM NaCl, 0.2% NP40; western blot

B1: HA-tagged SIRT2 (enzyme, UniProt Q8IXJ6 1-389)
chain: MAEPDPSHPLETQAGKVQEAQDSDSDSEGGAAGGEADMDFLRNLFSQTLSLGSQKERLLDELTLEGVARYMQSERCRRVICLVGAGISTSAGIPDFRSPSTGLYDNLEKYHLPYPEAIFEISYFKKHPEPFFALAKELYPGQFKPTICHYFMRLLKDKGLLLRCYTQNIDTLERIAGLEQEDLVEAHGTFYTSHCVSASCRHEYPLSWMKEKIFSEVTPKCEDCQSLVKPDIVFFGESLPARFFSCMQSDFLKVDLLLVMGTSLQVQPFASLISKAPLSTPRLLINKEKAGQSDPFLGMIMGLGGGMDFDSKKAYRDVAWLGECDQGCLALAELLGWKKELEDLVRREHASIDAQSGAGVPNPSTSASPKKSPPPAKDEARTTEREKPQ
Question: Which binding does the source give for B1 here?
Answer: The binding was “binds”.
